Values quoted from earlier work as cited in patent publication US7183293B2, “Ether derivatives useful as inhibitors of PDE4 isozymes” (Pfizer Inc., priority 2001, dated 2007).

Conditions: human, in vivo

For `COc1ccc(C(=O)Nc2c(Cl)cncc2Cl)c2cccnc12` [Example D4418], the oral absorption is given as “good oral absorption”.
